From PMC4677347
No constants are given. Whether binding was seen depends on the method and setting. Some entries that bind do so weakly or less than the wild type.

Target: human proteasome α7 subunit (human) (UniProt P25788)
Test: crystal structure; human α7 alone, 10 mg/mL in 50 mM Tris-HCl pH 7.4, 150 mM NaCl; crystals in 24% PEG400, 100 mM Tris-HCl pH 7.5, 0.2 M MgCl2, 20 °C; one tetradecamer per asymmetric unit; both purified

With “human proteasome α7 subunit (from UniProt P25788 1-255)” the binding was “binds”.
